# Assay results published in the supplement of paper PMC12819154, “High-throughput peptide-centric local stability assay extends protein–ligand identification to membrane proteins, tissues and bacteria” (Nature Structural & Molecular Biology, 2025).
# Amino acid sequences for entries named in this document (tags omitted). A change or cut given only in a name is not applied to a line headed by its entry.
# UniProt Q6AW86: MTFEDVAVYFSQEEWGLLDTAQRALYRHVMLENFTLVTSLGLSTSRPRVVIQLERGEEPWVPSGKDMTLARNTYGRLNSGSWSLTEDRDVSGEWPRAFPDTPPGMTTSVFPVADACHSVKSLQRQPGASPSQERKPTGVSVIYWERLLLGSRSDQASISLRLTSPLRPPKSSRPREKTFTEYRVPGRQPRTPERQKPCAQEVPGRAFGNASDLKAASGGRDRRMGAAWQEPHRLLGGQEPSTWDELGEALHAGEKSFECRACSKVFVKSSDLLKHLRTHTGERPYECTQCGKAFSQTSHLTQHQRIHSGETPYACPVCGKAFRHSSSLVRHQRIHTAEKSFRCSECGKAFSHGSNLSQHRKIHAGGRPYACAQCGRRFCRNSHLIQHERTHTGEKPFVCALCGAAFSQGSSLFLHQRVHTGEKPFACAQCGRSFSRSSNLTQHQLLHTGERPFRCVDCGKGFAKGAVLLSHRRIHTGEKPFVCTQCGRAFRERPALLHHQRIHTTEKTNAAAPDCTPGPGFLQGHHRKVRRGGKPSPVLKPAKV
# UniProt Q5VZL5: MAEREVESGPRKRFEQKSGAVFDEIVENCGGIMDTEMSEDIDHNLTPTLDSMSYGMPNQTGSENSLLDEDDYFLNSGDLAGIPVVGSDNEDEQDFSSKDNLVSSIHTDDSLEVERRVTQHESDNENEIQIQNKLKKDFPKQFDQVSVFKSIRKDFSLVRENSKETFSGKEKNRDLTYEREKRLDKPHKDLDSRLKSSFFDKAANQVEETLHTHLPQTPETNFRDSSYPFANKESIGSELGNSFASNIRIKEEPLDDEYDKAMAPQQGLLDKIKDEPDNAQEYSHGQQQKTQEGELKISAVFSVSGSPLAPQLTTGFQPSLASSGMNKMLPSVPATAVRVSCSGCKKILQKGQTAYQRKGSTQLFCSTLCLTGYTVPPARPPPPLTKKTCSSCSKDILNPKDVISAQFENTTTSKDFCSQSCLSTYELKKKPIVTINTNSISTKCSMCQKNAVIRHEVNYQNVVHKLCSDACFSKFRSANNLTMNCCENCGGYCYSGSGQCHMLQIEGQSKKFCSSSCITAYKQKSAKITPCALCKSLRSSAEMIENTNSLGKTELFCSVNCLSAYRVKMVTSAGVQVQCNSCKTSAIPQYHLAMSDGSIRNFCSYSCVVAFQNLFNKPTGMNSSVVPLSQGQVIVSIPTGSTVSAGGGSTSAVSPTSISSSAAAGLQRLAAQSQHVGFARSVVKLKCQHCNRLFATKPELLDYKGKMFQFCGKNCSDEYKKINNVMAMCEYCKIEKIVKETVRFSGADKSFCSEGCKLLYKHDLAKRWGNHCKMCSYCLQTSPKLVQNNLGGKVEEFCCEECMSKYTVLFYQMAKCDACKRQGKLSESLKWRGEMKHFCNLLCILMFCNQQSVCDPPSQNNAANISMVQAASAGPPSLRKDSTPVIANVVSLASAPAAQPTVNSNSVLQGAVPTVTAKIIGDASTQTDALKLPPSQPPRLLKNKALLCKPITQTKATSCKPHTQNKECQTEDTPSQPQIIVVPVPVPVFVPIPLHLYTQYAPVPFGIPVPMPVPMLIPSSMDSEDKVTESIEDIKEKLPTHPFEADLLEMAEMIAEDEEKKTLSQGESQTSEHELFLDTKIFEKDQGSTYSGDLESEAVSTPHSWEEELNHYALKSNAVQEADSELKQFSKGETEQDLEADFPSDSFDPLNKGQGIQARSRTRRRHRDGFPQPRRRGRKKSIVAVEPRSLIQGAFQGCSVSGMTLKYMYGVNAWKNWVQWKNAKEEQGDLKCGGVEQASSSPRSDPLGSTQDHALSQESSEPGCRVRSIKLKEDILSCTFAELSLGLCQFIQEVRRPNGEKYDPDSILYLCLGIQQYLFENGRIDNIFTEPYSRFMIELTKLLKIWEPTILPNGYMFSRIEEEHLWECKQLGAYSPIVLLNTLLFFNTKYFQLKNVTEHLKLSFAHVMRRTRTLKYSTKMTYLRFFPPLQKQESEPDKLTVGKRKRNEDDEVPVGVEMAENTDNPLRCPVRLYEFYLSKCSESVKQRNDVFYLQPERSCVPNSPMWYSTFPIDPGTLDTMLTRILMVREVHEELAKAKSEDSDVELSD
# UniProt Q6NZI2: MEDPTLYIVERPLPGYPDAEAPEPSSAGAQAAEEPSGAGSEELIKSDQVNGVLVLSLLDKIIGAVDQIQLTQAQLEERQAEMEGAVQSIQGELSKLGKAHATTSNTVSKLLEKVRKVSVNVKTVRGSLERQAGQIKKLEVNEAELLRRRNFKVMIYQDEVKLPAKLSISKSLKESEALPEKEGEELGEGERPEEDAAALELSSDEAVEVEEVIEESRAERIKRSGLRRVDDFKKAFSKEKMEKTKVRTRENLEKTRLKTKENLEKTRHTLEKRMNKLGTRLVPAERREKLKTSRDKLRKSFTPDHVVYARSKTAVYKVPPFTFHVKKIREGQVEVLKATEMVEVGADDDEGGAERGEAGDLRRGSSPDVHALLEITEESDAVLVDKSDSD
# UniProt Q6P1X6: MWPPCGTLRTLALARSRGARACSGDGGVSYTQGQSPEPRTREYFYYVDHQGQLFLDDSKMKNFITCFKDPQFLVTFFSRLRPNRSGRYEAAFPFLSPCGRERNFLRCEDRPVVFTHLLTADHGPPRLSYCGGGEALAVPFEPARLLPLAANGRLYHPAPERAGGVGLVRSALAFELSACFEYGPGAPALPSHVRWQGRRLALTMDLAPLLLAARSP
# UniProt Q6NSW5, whole entry: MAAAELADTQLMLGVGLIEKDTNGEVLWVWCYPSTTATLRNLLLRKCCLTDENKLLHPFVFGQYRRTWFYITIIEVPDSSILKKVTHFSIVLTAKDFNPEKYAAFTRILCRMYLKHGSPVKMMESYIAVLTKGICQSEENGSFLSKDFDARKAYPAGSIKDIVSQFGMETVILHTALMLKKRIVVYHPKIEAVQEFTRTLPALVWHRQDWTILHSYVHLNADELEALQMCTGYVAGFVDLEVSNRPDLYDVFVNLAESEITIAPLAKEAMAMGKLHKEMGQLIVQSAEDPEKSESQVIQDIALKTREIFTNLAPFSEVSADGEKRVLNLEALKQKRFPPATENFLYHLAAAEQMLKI
# UniProt Q6PI48: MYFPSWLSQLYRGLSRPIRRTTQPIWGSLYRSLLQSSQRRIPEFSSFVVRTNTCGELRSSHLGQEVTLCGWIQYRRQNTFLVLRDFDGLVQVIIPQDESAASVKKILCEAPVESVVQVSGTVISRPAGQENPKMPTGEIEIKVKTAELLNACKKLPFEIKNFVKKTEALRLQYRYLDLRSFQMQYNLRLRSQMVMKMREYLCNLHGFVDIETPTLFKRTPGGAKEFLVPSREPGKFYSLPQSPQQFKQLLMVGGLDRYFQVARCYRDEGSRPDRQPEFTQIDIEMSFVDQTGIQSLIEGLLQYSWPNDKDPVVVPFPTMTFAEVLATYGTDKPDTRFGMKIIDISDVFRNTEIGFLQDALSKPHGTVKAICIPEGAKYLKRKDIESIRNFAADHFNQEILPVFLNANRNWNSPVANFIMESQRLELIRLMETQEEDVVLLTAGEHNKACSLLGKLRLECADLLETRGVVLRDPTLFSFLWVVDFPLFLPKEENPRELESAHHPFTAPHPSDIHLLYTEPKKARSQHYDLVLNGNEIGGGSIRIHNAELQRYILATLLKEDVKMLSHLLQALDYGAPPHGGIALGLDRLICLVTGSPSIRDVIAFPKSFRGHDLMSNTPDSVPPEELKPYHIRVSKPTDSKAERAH
# UniProt Q6P4E1: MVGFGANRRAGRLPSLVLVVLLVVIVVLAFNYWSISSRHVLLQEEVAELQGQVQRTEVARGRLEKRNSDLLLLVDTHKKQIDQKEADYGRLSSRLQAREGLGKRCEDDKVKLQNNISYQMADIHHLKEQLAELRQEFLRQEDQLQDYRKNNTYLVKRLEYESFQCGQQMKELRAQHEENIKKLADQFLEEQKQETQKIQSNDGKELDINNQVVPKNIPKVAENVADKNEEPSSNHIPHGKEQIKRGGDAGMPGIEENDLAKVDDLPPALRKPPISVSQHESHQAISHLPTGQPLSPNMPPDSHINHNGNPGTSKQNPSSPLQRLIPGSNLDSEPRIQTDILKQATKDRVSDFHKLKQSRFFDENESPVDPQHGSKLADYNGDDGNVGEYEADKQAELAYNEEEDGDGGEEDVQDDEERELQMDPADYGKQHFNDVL
# UniProt Q6P6B7: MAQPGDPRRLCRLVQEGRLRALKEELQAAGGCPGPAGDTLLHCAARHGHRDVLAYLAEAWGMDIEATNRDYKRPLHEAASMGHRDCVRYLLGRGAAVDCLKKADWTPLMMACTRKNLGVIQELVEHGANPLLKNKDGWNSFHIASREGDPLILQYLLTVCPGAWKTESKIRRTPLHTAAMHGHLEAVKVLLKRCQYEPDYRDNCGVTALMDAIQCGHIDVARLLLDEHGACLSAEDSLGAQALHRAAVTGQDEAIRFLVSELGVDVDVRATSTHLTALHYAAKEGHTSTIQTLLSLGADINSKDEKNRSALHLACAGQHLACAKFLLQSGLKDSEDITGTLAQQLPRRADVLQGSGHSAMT
# UniProt Q6PCD5: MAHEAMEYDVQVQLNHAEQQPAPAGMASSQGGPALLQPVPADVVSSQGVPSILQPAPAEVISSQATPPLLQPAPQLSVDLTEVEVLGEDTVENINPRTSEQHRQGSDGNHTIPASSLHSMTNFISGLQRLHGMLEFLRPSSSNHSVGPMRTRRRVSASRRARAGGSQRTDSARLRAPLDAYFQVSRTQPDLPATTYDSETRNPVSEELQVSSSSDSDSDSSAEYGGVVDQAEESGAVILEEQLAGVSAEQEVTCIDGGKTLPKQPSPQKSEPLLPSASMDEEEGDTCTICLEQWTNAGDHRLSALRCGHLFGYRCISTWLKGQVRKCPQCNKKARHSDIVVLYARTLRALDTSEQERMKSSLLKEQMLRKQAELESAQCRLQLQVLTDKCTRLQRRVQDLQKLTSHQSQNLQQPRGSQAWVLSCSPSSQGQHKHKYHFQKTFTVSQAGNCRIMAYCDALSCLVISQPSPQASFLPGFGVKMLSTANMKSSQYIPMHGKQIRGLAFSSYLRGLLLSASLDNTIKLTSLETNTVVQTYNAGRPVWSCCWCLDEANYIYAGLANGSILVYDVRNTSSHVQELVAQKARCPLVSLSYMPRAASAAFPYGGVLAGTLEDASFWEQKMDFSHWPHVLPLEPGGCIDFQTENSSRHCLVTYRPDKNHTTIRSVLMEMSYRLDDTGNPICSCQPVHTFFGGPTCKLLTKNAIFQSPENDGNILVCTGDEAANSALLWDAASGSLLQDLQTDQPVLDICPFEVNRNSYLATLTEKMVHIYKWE
# Some of the results follow. Small differences around the control level are noise.
# Compound: Cc1nc(Nc2ncc(C(=O)Nc3c(C)cccc3Cl)s2)cc(N2CCN(CCO)CC2)n1 [dasatinib]
# Experiment: log2 fold change of tryptic peptide abundance, ligand vs vehicle (limited proteolysis) (log2 ratio); higher = more trypsin-susceptible (destabilized)
# Conditions: ligand concentration: 5 uM; sample: K562 cleared lysate
row,Target,log2 fold change
1,"UniProt Q6AW86 (peptide sequence: QKPCAQEVPGR, peptide start residue: 195)",0.217
2,"ZMYM4 (peptide sequence: DSSYPFANK, peptide start residue: 224) (UniProt Q5VZL5)",-0.135
3,"UniProt Q6NZI2 (peptide sequence: SLKESEALPEK, peptide start residue: 171)",0.386
4,"C8orf82 (peptide sequence: TREYFYYVDHQGQLFLDDSK, peptide start residue: 40) (UniProt Q6P1X6)",0.19
5,"UniProt Q6NSW5 (peptide sequence: IEAVQEFTR, peptide start residue: 190)",0.0422
6,"DARS2 (peptide sequence: YILATLLKEDVK, peptide start residue: 551) (UniProt Q6PI48)",0.173
7,"CASC4 (peptide sequence: FFDENESPVDPQHGSK, peptide start residue: 360) (UniProt Q6P4E1)",0.0716
8,"ANKRD16 (peptide sequence: RTPLHTAAMHGHLEAVK, peptide start residue: 172) (UniProt Q6P6B7)",0.218
9,"RFWD3 (peptide sequence: LHGMLEFLRPSSSNHSVGPMR, peptide start residue: 130) (UniProt Q6PCD5)",-0.348
10,"UniProt Q63HN8 (peptide sequence: TQTGHVLGNPQR, peptide start residue: 4553)",0.632

# Shown with bars between the fields: entries from further up
row | Target | log2 fold change
8 | ANKRD16 (peptide sequence: RTPLHTAAMHGHLEAVK, peptide start residue: 172) (UniProt Q6P6B7) | 0.218
9 | RFWD3 (peptide sequence: LHGMLEFLRPSSSNHSVGPMR, peptide start residue: 130) (UniProt Q6PCD5) | -0.348
